Taken from: PubChem BioAssay AID1259288 (Sanger Institute, 2017)
Here is an unselected part of 160 reagents tested. 7 of them (4.4%) were called active. 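Active calls arise only from BYL719 or trametinib; no cetuximab synergy went beyond 0.10; drug doses chosen to have mild effect alone.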 Entries without a mark were called inactive. The numbers tell different reagents against one gene apart. Viability is capped at 1. Not stated in the record: the amount of reagent, the time to read-out.

Test: 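Follow up primary screen gene-drug synthetic lethal pairs using separate siRNA duplexes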 (follow-up of hits with single siRNAs)
Cells: HT29 human colorectal cancer cells
Reagent: single siRNA against human genes
Treatment: anchor drugs BYL719 (1 µM), cetuximab (5 µg/ml) or trametinib (10 nM), or DMSO vehicle; each drug dosed to cause only modest loss of viability on its own
Measurement: 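Mean viability across replicates relative to non-targeting pool 2, and a synergy score setting the joint siRNA-plus-drug effect against each agent's effect alone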
Direction: synergy score with BYL719 and synergy score with trametinib and synergy score with cetuximab: higher = stronger combined killing than expected from each alone; viability with siRNA alone (DMSO): higher = more viable cells
Rule for the call: 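Hit when synergy for any of BYL719, cetuximab and trametinib exceeds 0.10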

gene symbol	reagent	synergy score with BYL719	synergy score with trametinib	synergy score with cetuximab	viability with siRNA alone (DMSO) (fraction of control)
CSNK2A2 (casein kinase 2 alpha 2)	1	-0.148	-0.00572	0	1
CSNK2A2 (casein kinase 2 alpha 2)	2	-0.183	-0.15	-0.125	0.441
CSNK2A2 (casein kinase 2 alpha 2)	3	-0.118	-0.0921	-0.302	0.6
CSNK2A2 (casein kinase 2 alpha 2)	4	-0.125	0.0256	-0.162	0.539
MAPK4 (mitogen-activated protein kinase 4)	1	-0.0649	-0.122	-0.121	0.822
MAPK4 (mitogen-activated protein kinase 4)	2	-0.0776	-0.0223	-0.0839	0.689
MAPK4 (mitogen-activated protein kinase 4)	3	-0.000686	0.0546	-0.00483	0.945
MAPK4 (mitogen-activated protein kinase 4)	4	-0.0334	-0.0334	0.0665	0.748
SYNCRIP (synaptotagmin binding cytoplasmic RNA interacting protein)	1	-0.112	-0.0161	-0.192	0.808
SYNCRIP (synaptotagmin binding cytoplasmic RNA interacting protein)	2	-0.153	-0.0207	-0.0327	0.928
SYNCRIP (synaptotagmin binding cytoplasmic RNA interacting protein)	3	-0.108	0.0138	-0.248	0.524
SYNCRIP (synaptotagmin binding cytoplasmic RNA interacting protein)	4	-0.156	-0.0889	-0.0935	0.809
MAP3K8 (mitogen-activated protein kinase kinase kinase 8)	1	0.0511	-0.0923	-0.0641	0.876
MAP3K8 (mitogen-activated protein kinase kinase kinase 8)	2	0.0505	0.0619	-0.115	0.885
MAP3K8 (mitogen-activated protein kinase kinase kinase 8)	3	-0.117	-0.0865	-0.124	0.742
MAP3K8 (mitogen-activated protein kinase kinase kinase 8)	4	-0.13	-0.0714	-0.138	0.8
MPP3 (MAGUK p55 scaffold protein 3)	1	-0.225	-0.0435	-0.125	0.82
MPP3 (MAGUK p55 scaffold protein 3)	2	-0.107	0.00599	-0.155	0.845
MPP3 (MAGUK p55 scaffold protein 3)	3	-0.187 (active)	0.101	-0.135	0.749
MPP3 (MAGUK p55 scaffold protein 3)	4	-0.0992	0.0439	-0.0199	0.593
GRK5 (G protein-coupled receptor kinase 5)	1	-0.222	-0.0649	-0.101	0.899
GRK5 (G protein-coupled receptor kinase 5)	2	-0.109	-0.0743	0	1
GRK5 (G protein-coupled receptor kinase 5)	3	-0.0668	0.0386	-0.173	0.778
GRK5 (G protein-coupled receptor kinase 5)	4	-0.129	0.00412	0	1
RPS6KA4 (ribosomal protein S6 kinase A4)	1	-0.0729	0.0315	-0.114	0.886
RPS6KA4 (ribosomal protein S6 kinase A4)	2	0.0487	0.0023	-0.173	0.827
RPS6KA4 (ribosomal protein S6 kinase A4)	3	-0.0232	-0.12	-0.0627	0.368
RPS6KA4 (ribosomal protein S6 kinase A4)	4	-0.159	0.0327	-0.31	0.48

Quoted from the listing for reference:
gene symbol	reagent	synergy score with BYL719	synergy score with trametinib	synergy score with cetuximab	viability with siRNA alone (DMSO) (fraction of control)
SYNCRIP (synaptotagmin binding cytoplasmic RNA interacting protein)	1	-0.112	-0.0161	-0.192	0.808
SYNCRIP (synaptotagmin binding cytoplasmic RNA interacting protein)	2	-0.153	-0.0207	-0.0327	0.928
SYNCRIP (synaptotagmin binding cytoplasmic RNA interacting protein)	3	-0.108	0.0138	-0.248	0.524
SYNCRIP (synaptotagmin binding cytoplasmic RNA interacting protein)	4	-0.156	-0.0889	-0.0935	0.809
MAP3K8 (mitogen-activated protein kinase kinase kinase 8)	1	0.0511	-0.0923	-0.0641	0.876
MAP3K8 (mitogen-activated protein kinase kinase kinase 8)	2	0.0505	0.0619	-0.115	0.885
MAP3K8 (mitogen-activated protein kinase kinase kinase 8)	3	-0.117	-0.0865	-0.124	0.742
MAP3K8 (mitogen-activated protein kinase kinase kinase 8)	4	-0.13	-0.0714	-0.138	0.8
MPP3 (MAGUK p55 scaffold protein 3)	1	-0.225	-0.0435	-0.125	0.82
MPP3 (MAGUK p55 scaffold protein 3)	2	-0.107	0.00599	-0.155	0.845

Additional entries follow.
gene symbol	reagent	synergy score with BYL719	synergy score with trametinib	synergy score with cetuximab	viability with siRNA alone (DMSO) (fraction of control)
NR2F2 (nuclear receptor subfamily 2 group F member 2)	1	-0.189	-0.042	-0.214	0.714
NR2F2 (nuclear receptor subfamily 2 group F member 2)	2	-0.223	-0.0522	-0.184	0.67
NR2F2 (nuclear receptor subfamily 2 group F member 2)	3	-0.188	-0.0801	0.0469	1
NR2F2 (nuclear receptor subfamily 2 group F member 2)	4	-0.0519	-0.0275	-0.0365	0.781
NLK (nemo like kinase)	1	-0.207	-0.105	-0.209	0.756
NLK (nemo like kinase)	2	-0.0123	0.0604	-0.117	0.883
NLK (nemo like kinase)	3	-0.187	-0.0109	-0.0949	0.905
NLK (nemo like kinase)	4	-0.231	-0.0429	-0.0662	0.934
COASY (Coenzyme A synthase)	1	-0.0452	-0.0112	-0.185	0.65
COASY (Coenzyme A synthase)	2	-0.0074	-0.0201	-0.0554	0.732
COASY (Coenzyme A synthase)	3	-0.0779	0.0119	-0.0552	0.665
COASY (Coenzyme A synthase)	4	0.0415	0.0206	0.0404	0.54
IKBKB (inhibitor of nuclear factor kappa B kinase subunit beta)	1	-0.174	-0.145	0.00929	0.523
IKBKB (inhibitor of nuclear factor kappa B kinase subunit beta)	2	-0.00382	0.00351	0.0219	0.85
IKBKB (inhibitor of nuclear factor kappa B kinase subunit beta)	3	0.0134	0.0195	-0.0038	0.953
IKBKB (inhibitor of nuclear factor kappa B kinase subunit beta)	4	-0.0301 (active)	0.128	-0.0631	0.93
GUCY2D (guanylate cyclase 2D, retinal)	1	-0.0907	-0.0248	-0.0502	0.95
GUCY2D (guanylate cyclase 2D, retinal)	2	-0.0268	0.0272	-0.132	0.683
GUCY2D (guanylate cyclase 2D, retinal)	3	-0.222	-0.0925	-0.125	0.588
GUCY2D (guanylate cyclase 2D, retinal)	4	-0.255	-0.0138	0	1
BMPR2 (bone morphogenetic protein receptor type 2)	1	-0.144	-0.0997	-0.0728	0.908
BMPR2 (bone morphogenetic protein receptor type 2)	2	-0.0802	-0.0511	-0.19	0.777
BMPR2 (bone morphogenetic protein receptor type 2)	3	-0.204	-0.111	-0.0727	0.927
BMPR2 (bone morphogenetic protein receptor type 2)	4	-0.108	-0.0717	0	1
PIK3CA	1	-0.0395	-0.0373	0.026	0.631
PIK3CA	2	-0.291	-0.0652	-0.14	0.662
PIK3CA	3	-0.169	0.0718	-0.0874	0.804
PIK3CA	4	-0.139	0.0562	0.0665	0.875
IRAK1 (interleukin 1 receptor associated kinase 1)	1	-0.05	-0.0296	-0.0897	0.58
IRAK1 (interleukin 1 receptor associated kinase 1)	2	-0.00564	0.00166	0	1
IRAK1 (interleukin 1 receptor associated kinase 1)	3	0.121 (active)	-0.0115	0.0039	0.858
IRAK1 (interleukin 1 receptor associated kinase 1)	4	0.0249	-0.00933	0.0984	0.965
